At least one peptide structure holds a part that was inferred or is arguable (an end, a ring closure or a residue). Positions of bridges follow the written chain, without caps; N, C: chain ends. Residues, ends and D or L forms follow the SMILES beside them.
Test system: hog kidney renin
Experiment: Hog renin inhibition
Type: biochemical
Settings: pH 7.3, read-out: I50 (concentration of peptide inhibitor necessary to produce 50% inhibition of renin activity)
Protocol: An assay was carried out in order to determine the inhibitory potency of the peptides of the present invention. The assay measured the inhibition of hog kidney renin, and was in accordance with the procedure described in Rich et al., J. Med. Chem. 23:27, 1980, except that a pH of 7.3 was used. The results of the assay, illustrated in the table below, are expressed as I50 values, which refers to the concentration of peptide inhibitor necessary to produce 50% inhibition of renin activity. This I50 value is obtained typically by plotting data from four inhibitor concentrations.

`CC(C)[C@@H]1NC(=O)[C@H](Cc2ccccc2)NC(=O)[C@H](Cc2ccccc2)NC(=O)[C@@H](NC(=O)[C@H](Cc2ccccc2)NC(=O)[C@@H]2CCCN2C(=O)[C@H](Cc2c[nH]cn2)NC(=O)[C@@H]2CCCN2)CCCCNC(=O)[C@H](Cc2ccccc2)NC1=O` [drawing 68] (H-PHPFKFFVF; lactam 5-C) gave an IC50 of 1.8 mM.
